According to PubChem BioAssay AID504467 (National Center for Advancing Translational Sciences (NCATS), 2011):
Among all 330,000 compounds or so, about 7,700 (2.3%) were called active. The inconclusive results got no clear call from the source; some entries with a clear call stand among them for comparison. The call rests on the fitted dose curve; in most records, active means well fitted inhibition curve with a large enough effect; inconclusive means small, poorly fitted or top-dose-only effect, or effect the other way; inactive means flat fitted curve, though single readings scatter. A potency beside an inconclusive call is a rough fit, not a confirmed value.

Experiment: qHTS screen for small molecules that inhibit ELG1-dependent DNA repair in human embryonic kidney (HEK293T) cells expressing luciferase-tagged ELG1; further: nearly all actives have a fitted effect of over 55% in size
Settings: HEK293T ELG1-luciferase reporter, luminescence, 16 h, DNA damage induced by 5-fluorouridine; activity change, negative = inhibition: at 46.1 µM (top of the series)
Outline: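 Cells (2,000 per well) received 5-fluorouridine plus test compound or DMSO and were incubated 16 hr at 37 °C, 5% CO2. Luciferase activity was read by luminescence 30 min after ONE-Glo addition; signal suppression marked inhibition of damage-induced ELG1 function.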
On the % scale 0 is the no-effect control and ±100 the full control effect; potency means the concentration at half of the fitted maximal effect.

SMILES	activity change, negative = inhibition	Potency
CCN1C(=O)[C@H]2[C@@H](c3ccc(-c4ccc(F)cc4)c(OC)c3)N3CCC[C@@]3(C(=O)OC)[C@H]2C1=O	inactive: -4.35%	
CC(C)CCNC(=O)C(c1ccc(O)cc1)N(Cc1cccs1)C(=O)C1COc2ccccc2O1 (stereo unspecified)		active: 20.6 µM
Cc1oc2c(c1C(=O)Nc1cccc3ccccc13)CCCC2	inactive: -3.47%	
Oc1ccc(-c2csc(Nc3ncccn3)n2)cc1		inconclusive: 4.61 µM [activator, full curve]
O=C(O)CCCCNS(=O)(=O)/C=C/c1ccccc1	inactive: -2.27%	
O=C(CSC1=NCCS1)Nc1cccc2ccccc12	inactive: -6.65%	
CCOC(=O)C1=C(CSc2nc(-c3ccccc3)ccc2C#N)OC(N)=C(C#N)C1c1cccnc1 (stereo unspecified)		inconclusive: 23.1 µM [activator, single point]
O=c1c2cc(NC(=S)NCCCN3CCC(Cc4ccccc4)CC3)ccc2nc2n1CCCCC2		inconclusive: 29.1 µM [inhibitor, single point]
Cc1ccc(S(=O)(=O)C2(C(=O)N3CCN(c4cc(C)ccc4C)CC3)CC2)cc1		active: 25.9 µM
Cc1cc(C)c2c(N)c(C(=O)N/N=C/c3ccccc3)sc2n1		inconclusive: 2.06 µM [activator, full curve]
CN1CCCC1CCNc1ccc2oc3ccccc3c(=O)c2c1 (stereo unspecified)		inconclusive: 9.2 µM [activator, partial curve]
COc1ccc(S(=O)(=O)/N=C2\C=C(Nc3ccc(O)cc3)C(=O)c3ccccc32)cc1		active: 5.8 µM
O=C(COC(=O)c1cccc(F)c1)Nc1ccc(Cl)cn1	inactive: -1.47%	
Cc1csc(CNc2ncnc3ccc(-c4cccc(Cl)c4)cc23)c1		inconclusive: 29.1 µM [inhibitor, single point]
Cc1cc2nc(-c3ccc(SCc4ccccn4)nc3)[nH]c2cc1C		inconclusive: 5.8 µM [inhibitor, single point]
COC(/C=C/Nc1ccc(Cl)cc1)=C(C#N)C#N	inactive: 13.7%	
CC1CCC(NC(=O)CC(C)(C)Cc2nc3ccccc3c(=O)[nH]2)CC1 (stereo unspecified)		inconclusive: 5.8 µM [inhibitor, single point]
CC(C)COc1ccc(C(=O)Nc2ccc(SC(F)F)cc2)cc1		inconclusive: 7.31 µM [activator, partial curve]
COc1ccc(NC(=O)CN(C)C(C)C(=O)NC(=O)NC2CCCCC2)cc1 (stereo unspecified)		inconclusive: 5.8 µM [inhibitor, partial curve, poor fit]
O=C(O)CNC(=O)C1COc2ccccc2O1 (stereo unspecified)	inactive: 12.9%	
Cc1cc(C)cc(NC(=S)N2CCN(c3ccccn3)CC2)c1	inactive: -2.71%	
CC(=O)Nc1ccc(-c2csc(NC(=O)C3CCN(S(=O)(=O)c4cccs4)CC3)n2)cc1		inconclusive: 20.6 µM [inhibitor, single point]
Nc1ccc2nc(-c3ccccc3)[nH]c2c1		inconclusive: 5.17 µM [activator, partial curve]

SMILES	activity change, negative = inhibition	Potency
Cc1cccc(C)c1NC(=O)CN(C)CC(=O)Nc1cc(Cl)ccc1C#N		inconclusive: 20.6 µM [inhibitor, single point]
O=C(Nc1nc2n(n1)C(c1ccc(Cl)cc1)CC(c1ccc(Cl)cc1)N2)c1ccco1 (stereo unspecified)		inconclusive: 9.2 µM [inhibitor, single point]
CCOC(=O)c1c(C)[nH]c(C(=O)OCC(=O)N2CCN(S(=O)(=O)c3ccccc3)CC2)c1C		inconclusive: 16.4 µM [inhibitor, partial curve]
O=C(OCC(=O)N1CCCC1)c1cccc(Br)c1		inconclusive: 14.6 µM [activator, single point]
Cc1ccc(C(=O)CC(c2cccs2)S(=O)(=O)c2ccc(C)cc2)cc1 (stereo unspecified)		inconclusive: 23.1 µM [activator, partial curve]
O=C(/C=C/Nc1cccc([N+](=O)[O-])c1)c1cccs1		inconclusive: 2.31 µM [activator, full curve]
CCOc1ccc(OCC)c(NC(=O)CN2CCC(NC(=O)c3cccc(F)c3)CC2)c1	inactive: 0%	
O=C1CC2(CCN(C(=O)C3CC(=O)N(c4ccc(F)cc4)C3)CC2)Oc2ccccc21 (stereo unspecified)		inconclusive: 29.1 µM [inhibitor, single point]
COc1cc(Cl)ccc1OCc1cc(C(=O)N2CCN(C)CC2)no1	inactive: -0.636%	
Cc1cc(Cn2nc(C(=O)NCc3cccs3)cc2-c2ccccc2)on1		inconclusive: 31.6 µM [inhibitor, single point]
CCOC(=O)c1cnn(-c2ccccc2)c1NC(=O)CN1CCOCC1		inconclusive: 18.3 µM [inhibitor, single point]
CC(C)CN(C(=O)COC(=O)c1c(Cl)ccc(Cl)c1Cl)C1CCS(=O)(=O)C1 (stereo unspecified)		inconclusive: 13 µM [inhibitor, partial curve]
Cc1oc(C(=O)O)cc1CSCc1cc(C(=O)O)c(C)o1		inconclusive: 14.6 µM [activator, partial curve, poor fit]
CC(C)CNC(=S)N1CCN(c2nc(-c3ccc(Cl)cc3)cs2)CC1		inconclusive: 32.6 µM [inhibitor, single point]
CC(=O)n1cc(Nc2ccc([N+](=O)[O-])cc2)c2ccccc21		inconclusive: 23.1 µM [inhibitor, single point]
O=C(CSc1nnc(-c2cccnc2)o1)Nc1ccc(Cl)cc1		inconclusive: 23.1 µM [activator, single point]
Cc1ccc(C2CC(c3cccs3)=NN2C(=O)CSc2nc3ccccc3o2)cc1 (stereo unspecified)	inactive: 0.797%	
COc1ccc([N+](=O)[O-])cc1NS(=O)(=O)c1cccc(C(=O)NCCCN2CCCC2=O)c1	inactive: 14.8%	
COC(=O)CSC1=C(C#N)C(=O)NC(c2ccccc2)S1 (stereo unspecified)	inactive: 19.2%	
c1ccc(Nc2nnc(SCc3cccc4ccccc34)s2)cc1	inactive: 1.73%	
Cc1cc(=O)oc2c3c(cc(OCC(=O)N[C@H](C(=O)O)c4ccccc4)c12)OC(C)(C)CC3	inactive: -12.2%	
Cc1ccc(Nc2nc3ccccc3c(=O)s2)cc1	inactive: 20.8%	
COc1ccc(CN(C)C(=O)CCc2ccc(S(=O)(=O)N3CCCCCC3)cc2)c(OC)c1		inconclusive: 18.3 µM [inhibitor, single point]

Taken from above.
Under Potency, `CCOC(=O)c1cnn(-c2ccccc2)c1NC(=O)CN1CCOCC1` is listed with inconclusive: 18.3 µM [inhibitor, single point]
Under Potency, `Cc1ccc(C(=O)CC(c2cccs2)S(=O)(=O)c2ccc(C)cc2)cc1` (stereo unspecified) is listed with inconclusive: 23.1 µM [activator, partial curve]
